Results reported in article PMC8577927.
These are yes or no findings as the source states them, for the method shown. Binding seen in cells or lysates may run through a third protein.

Target: T1, Nuclear factor E2-related factor 2 (NRF2) (goat (endogenous in gEECs))
T1 sequence: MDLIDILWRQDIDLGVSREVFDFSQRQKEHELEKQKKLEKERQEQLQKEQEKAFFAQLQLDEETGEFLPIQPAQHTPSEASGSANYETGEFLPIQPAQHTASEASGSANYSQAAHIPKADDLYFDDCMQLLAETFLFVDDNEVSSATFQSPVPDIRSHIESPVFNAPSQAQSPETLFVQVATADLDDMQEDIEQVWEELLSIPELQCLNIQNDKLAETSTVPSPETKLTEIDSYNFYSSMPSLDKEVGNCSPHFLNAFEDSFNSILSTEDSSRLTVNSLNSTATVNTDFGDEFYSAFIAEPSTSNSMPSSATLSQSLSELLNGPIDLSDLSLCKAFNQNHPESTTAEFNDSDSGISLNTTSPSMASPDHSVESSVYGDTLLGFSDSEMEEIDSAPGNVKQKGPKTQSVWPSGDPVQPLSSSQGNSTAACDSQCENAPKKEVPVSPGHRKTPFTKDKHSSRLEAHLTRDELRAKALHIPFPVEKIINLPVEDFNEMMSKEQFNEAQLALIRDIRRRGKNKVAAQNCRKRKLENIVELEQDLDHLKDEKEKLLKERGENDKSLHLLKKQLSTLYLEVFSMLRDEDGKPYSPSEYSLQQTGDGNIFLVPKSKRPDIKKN
Test: co-IP; NRF2 (D1Z9C) antibody added to 200 μg protein of gEEC lysate (8 μg/mL LPS for 12 hours) for 12 hours at 4°C, protein A/G beads; rabbit IgG as negative control; immunoblotting with NRF2, TLR4, IκBα and p65 antibodies

binding: no binding
Substance: toll-like receptor 4 (TLR4) (goat (endogenous in gEECs))
